Test results from PubChem BioAssay (NCATS).
The shares of active, inactive and inconclusive entries below differ from those in the screen. For part of these data: Potencies of inconclusive entries are doubtful fits and often do not repeat. The source made the active and inactive calls. Calls follow the shape of the dose curve; as a rule, active = well fitted curve in the direction sought with a large enough effect; inconclusive = small, poorly fitted or top-dose-only effect, or another doubt; inactive = no such curve, though single readings can be large; an effect the other way counts as inactive or inconclusive.

What was measured:
[1] = Quantitative High-Throughput drug screen in 47 multiple myeloma cell lines against the NCATS MIPE library collection: KHM11_PLB cell viability assay (AID 1918962); details: KHM11 myeloma cell viability, CellTiter-Glo ATP luminescence, 48 h; series mostly up to 45.8 µM; also: potency is read from the fitted curve at half-maximal effect; nearly all actives have a fitted effect of over 35% in size
Method in brief: (§1)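 Inhibition of cell viability is measured here. Each line was plated at 500 cells per well, treated with MIPE 4.0 drugs, kept 48 hours at 37C, then assayed for ATP content by CellTiter-Glo luminescence.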

[2] = Quantitative High-Throughput drug screen in 47 multiple myeloma cell lines against the NCATS MIPE library collection: JIM1_ECACC cell viability assay (AID 1918964; also: potency is read from the fitted curve at half-maximal effect); details: JIM1 myeloma viability, CellTiter-Glo ATP luminescence, 48 h; viability (% of DMSO): at 45.8 µM (top of the series)
Method in brief: (§2)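 Myeloma cell lines, 500 cells per well, exposed to MIPE 4.0 library compounds for 48 h at 37C, 5% CO2. Viability from ATP by CellTiter-Glo luminescence; normalised to DMSO (100%) and media-only (0%) wells.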

[3] = Quantitative High-Throughput drug screen in 47 multiple myeloma cell lines against the NCATS MIPE library collection: INA6_PLB cell viability assay (AID 1918965; also: potency is read from the fitted curve at half-maximal effect; nearly all actives have a fitted effect of over 55% in size); details: INA6 myeloma viability, CellTiter-Glo ATP luminescence, 48 h; series mostly up to 45.8 µM
Method in brief: (§3)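 qHTS of the MIPE 4.0 collection: 500 myeloma cells/well, 48 h drug exposure at 37C in 5% CO2, then CellTiter-Glo for 5 min at room temperature before luminescence reading.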

[4] = Quantitative High-Throughput drug screen in 47 multiple myeloma cell lines against the NCATS MIPE library collection: JJN3_DSMZ cell viability assay (AID 1918966; also: nearly all actives have a fitted effect of over 50% in size; also: potency is read from the fitted curve at half-maximal effect)
Method in brief: as §2

[5] = Quantitative High-Throughput drug screen in 47 multiple myeloma cell lines against the NCATS MIPE library collection: Karpas25_ECACC cell viability assay (AID 1918968; also: nearly all actives have a fitted effect of over 35% in size; also: potency is read from the fitted curve at half-maximal effect)
Method in brief: as §2

[6] = Quantitative High-Throughput drug screen in 47 multiple myeloma cell lines against the NCATS MIPE library collection: KMS27_JCRB cell viability assay (AID 1918970); details: KMS27 myeloma cells, CellTiter-Glo ATP viability, 48 h; viability (% of DMSO): at 45.8 µM (top of the series); also: nearly all actives have a fitted effect of over 30% in size; also: potency is read from the fitted curve at half-maximal effect
Method in brief: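 Myeloma cells (500 per well) were exposed to MIPE 4.0 compounds for 48 h at 37 °C, 5% CO2; viability was read as ATP luminescence with CellTiter-Glo, normalized to DMSO-only (100%) and media-only (0%) wells.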

[7] = Quantitative High-Throughput drug screen in 47 multiple myeloma cell lines against the NCATS MIPE library collection: KMS12BM_JCRB cell viability assay (AID 1918971); also: nearly all actives have a fitted effect of over 35% in size; also: potency is read from the fitted curve at half-maximal effect
Method in brief: (§4)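 Approved and investigational drugs from MIPE 4.0 were added by pin tool to 500 cells per well. After 48 hours at 37C, ATP-based CellTiter-Glo luminescence indicated remaining viability.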

[8] = Quantitative High-Throughput drug screen in 47 multiple myeloma cell lines against the NCATS MIPE library collection: KMS12PE_JCRB cell viability assay (AID 1918972); details: KMS12PE myeloma viability, CellTiter-Glo ATP, 48 h; viability: at 45.8 µM (top of the series); also: potency is read from the fitted curve at half-maximal effect; nearly all actives have a fitted effect of over 30% in size
Method in brief: as §3

[9] = Quantitative High-Throughput drug screen in 47 multiple myeloma cell lines against the NCATS MIPE library collection: KMS20_JCRB cell viability assay (AID 1918973); details: CellTiter-Glo ATP, 48 h; viability (% of DMSO): at 45.8 µM (top of the series); also: potency is read from the fitted curve at half-maximal effect; nearly all actives have a fitted effect of over 45% in size
Method in brief: as §2

[10] = Quantitative High-Throughput drug screen in 47 multiple myeloma cell lines against the NCATS MIPE library collection: KMS21BM_JCRB cell viability assay (AID 1918974); details: ATP luminescence, 48 h; viability: at 45.8 µM (top of the series); also: potency is read from the fitted curve at half-maximal effect
Method in brief: as §2

[11] = Quantitative High-Throughput drug screen in 47 multiple myeloma cell lines against the NCATS MIPE library collection: KMS26_JCRB cell viability assay (AID 1918975); details: KMS26 myeloma cells viability, CellTiter-Glo ATP, 48 h; viability (% of DMSO): at 45.8 µM (top of the series); also: nearly all actives have a fitted effect of over 45% in size; also: potency is read from the fitted curve at half-maximal effect
Method in brief: as §4

[12] = Quantitative High-Throughput drug screen in 47 multiple myeloma cell lines against the NCATS MIPE library collection: MMM1_PLB cell viability assay (AID 1918976); also: nearly all actives have a fitted effect of over 35% in size; also: potency is read from the fitted curve at half-maximal effect
Method in brief: (§5)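 Viability after 48 h drug exposure was measured as ATP-dependent luminescence. Cells, 500 per well, sat at 37 °C under 5% CO2; DMSO wells set 100%, media-only wells 0%.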

[13] = Quantitative High-Throughput drug screen in 47 multiple myeloma cell lines against the NCATS MIPE library collection: MOLP8_DSMZ cell viability assay (AID 1918977); also: nearly all actives have a fitted effect of over 45% in size; also: potency is read from the fitted curve at half-maximal effect
Method in brief: as §5

[14] = Quantitative High-Throughput drug screen in 47 multiple myeloma cell lines against the NCATS MIPE library collection: NCIH929_DSMZ cell viability assay (AID 1918978); details: NCI-H929 myeloma viability, CellTiter-Glo ATP, 48 h; series mostly up to 45.8 µM; also: nearly all actives have a fitted effect of over 35% in size; also: potency is read from the fitted curve at half-maximal effect
Method in brief: as §5

[15] = Quantitative High-Throughput drug screen in 47 multiple myeloma cell lines against the NCATS MIPE library collection: MM1S_ATCC cell viability assay (AID 1918980); also: potency is read from the fitted curve at half-maximal effect; nearly all actives have a fitted effect of over 45% in size
Method in brief: as §5

[16] = Quantitative High-Throughput drug screen in 47 multiple myeloma cell lines against the NCATS MIPE library collection: MM1R_ATCC cell viability assay (AID 1918981)
Method in brief: as §5

[17] = Quantitative High-Throughput drug screen in 47 multiple myeloma cell lines against the NCATS MIPE library collection: OCIMY1_PLB cell viability assay (AID 1918979)
Method in brief: as §5

[18] = Quantitative High-Throughput drug screen in 47 multiple myeloma cell lines against the NCATS MIPE library collection: JIM3_ECACC cell viability assay (AID 1918963; also: nearly all actives have a fitted effect of over 35% in size); details: JIM3 myeloma viability, CellTiter-Glo ATP, 48 h; series mostly up to 45.8 µM
Method in brief: as §1

[19] = Quantitative High-Throughput drug screen in 47 multiple myeloma cell lines against the NCATS MIPE library collection: Karpas417_ECACC cell viability assay (AID 1918961); details: Karpas417 myeloma viability, CellTiter-Glo ATP luminescence, 48 h; viability (% of DMSO): at 45.8 µM (top of the series); also: potency is read from the fitted curve at half-maximal effect
Method in brief: as §3

Measured: Potency

C[C@]12CC[C@@H]3c4ccc(OC(=O)N(CCCl)CCCl)cc4CC[C@H]3[C@@H]1CC[C@@H]2OP(=O)(O)O
inconclusive: [1] 132 nM [rising, full curve] | [3] 118 nM [rising, full curve, poor fit] | [8] 1 nM | [9] 11.8 nM [rising, full curve, poor fit] | [11] 11800 nM [rising, partial curve, poor fit] | [12] 8.3 nM [rising, full curve, poor fit] | [15] 10500 nM [rising, partial curve, poor fit] | [16] 1 nM
not listed: [17] | [18] | [19]
inactive: all other assays above

C[C@@]12OC(=O)[C@]1([C@@H](O)[C@@H]1C=CCCC1)NC(=O)[C@H]2CCCl
inconclusive: [17] 7.4 nM [cytotoxic, full curve]
active: [2] 20.9 nM | [3] 1 nM | [5] 1 nM | [9] 29.6 nM | [11] 10.5 nM | [13] 5.3 nM

CC(=O)O[C@@]12CO[C@H]1C[C@H](O)[C@@]1(C)C(=O)[C@H](O)C3=C(C)[C@@H](O)C[C@@](O)([C@@H](OC(=O)c4ccccc4)[C@@H]21)C3(C)C
inconclusive: [1] 743 nM [cytotoxic, full curve, poor fit] | [2] 1180 nM [cytotoxic, full curve] | [4] 3320 nM [cytotoxic, full curve, poor fit] | [5] 662 nM [cytotoxic, full curve] | [6] 526 nM [cytotoxic, full curve] | [9] 1480 nM [cytotoxic, full curve, poor fit] | [12] 3 nM [rising, full curve, poor fit] | [14] 2090 nM [cytotoxic, partial curve, poor fit] | [17] 33200 nM [cytotoxic, single point]
inactive: [11]

O=C(O)c1nn(Cc2ccc(Cl)cc2Cl)c2ccccc12
inactive: [18] | [2] | [4] | [6] | [12] | [13]
inconclusive: [1] 1050 nM [cytotoxic, full curve, poor fit] | [3] 13.2 nM [rising, full curve] | [5] 11.8 nM [rising, full curve] | [7] 23500 nM [cytotoxic, single point] | [9] 6.6 nM [rising, full curve, poor fit] | [10] 33.2 nM [cytotoxic, full curve, poor fit] | [11] 6620 nM [cytotoxic, partial curve, poor fit] | [17] 9350 nM [cytotoxic, partial curve, poor fit] | [15] 20900 nM [cytotoxic, single point]

C[C@@H]1O[C@@H](O[C@@H]2C=C3CC[C@@H]4[C@@H](CC[C@]5(C)[C@H](c6ccc(=O)oc6)CC[C@@]45O)[C@@]3(C)CC2)[C@H](O)[C@H](O)[C@H]1O
active: [19] 14.8 nM | [3] 26.4 nM | [4] 46.9 nM | [10] 26.4 nM | [11] 41.8 nM | [17] 16.6 nM
